Reference: PMC4091708
These are yes or no findings as the source states them, for the method shown. In cells and extracts the contact can be indirect. A result given as binding can be weak or reduced; the word gives no strength. Tags and fused reporters may be left off the sequences shown.

Assays:
Experiment in all cases: co-IP; epitope-tagged proteins co-overexpressed by transient transfection in S2r+ cells; lysis in 50 mM Tris-Cl pH 7,5, 150 mM NaCl, 1% NP40, 0.2% Na-Deoxycholate with protease inhibitors; anti-Myc or anti-GFP IP overnight at 4°C on Protein A/G Sepharose; Western blot for the other tag
[1] = molecular target: T1, Otk-Myc (Myc-tagged Off-track) (Drosophila melanogaster) (UniProt Q6AWJ9)
T1 sequence: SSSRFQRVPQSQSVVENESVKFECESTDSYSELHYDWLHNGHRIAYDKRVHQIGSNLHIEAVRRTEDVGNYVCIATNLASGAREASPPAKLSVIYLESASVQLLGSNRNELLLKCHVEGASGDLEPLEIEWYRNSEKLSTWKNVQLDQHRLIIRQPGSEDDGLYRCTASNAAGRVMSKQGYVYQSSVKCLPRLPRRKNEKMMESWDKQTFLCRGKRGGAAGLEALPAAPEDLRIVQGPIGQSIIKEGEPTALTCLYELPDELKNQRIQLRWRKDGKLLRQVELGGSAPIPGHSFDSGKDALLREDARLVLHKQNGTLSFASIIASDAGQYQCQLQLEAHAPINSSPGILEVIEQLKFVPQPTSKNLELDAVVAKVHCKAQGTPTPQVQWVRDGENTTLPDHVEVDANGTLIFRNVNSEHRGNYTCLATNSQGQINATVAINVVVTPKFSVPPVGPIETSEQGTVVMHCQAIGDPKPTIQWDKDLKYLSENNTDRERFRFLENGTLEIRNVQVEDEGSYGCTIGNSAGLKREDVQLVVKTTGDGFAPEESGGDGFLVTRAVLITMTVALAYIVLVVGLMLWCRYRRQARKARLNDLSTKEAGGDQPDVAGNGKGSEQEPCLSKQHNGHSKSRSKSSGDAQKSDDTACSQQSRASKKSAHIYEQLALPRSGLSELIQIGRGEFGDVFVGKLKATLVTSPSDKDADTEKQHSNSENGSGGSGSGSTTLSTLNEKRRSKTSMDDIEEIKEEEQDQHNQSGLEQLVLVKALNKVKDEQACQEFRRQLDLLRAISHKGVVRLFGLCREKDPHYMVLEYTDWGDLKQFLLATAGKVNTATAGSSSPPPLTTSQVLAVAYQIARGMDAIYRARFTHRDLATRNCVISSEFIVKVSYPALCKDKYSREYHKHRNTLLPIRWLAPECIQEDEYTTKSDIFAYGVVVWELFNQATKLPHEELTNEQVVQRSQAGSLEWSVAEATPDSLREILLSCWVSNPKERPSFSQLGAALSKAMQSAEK

[2] = molecular target: T2, OtkDeltaEx-Myc (Myc-tagged Otk lacking the extracellular domain, aa 2–474) (Drosophila melanogaster) (UniProt Q6AWJ9)
T2 sequence: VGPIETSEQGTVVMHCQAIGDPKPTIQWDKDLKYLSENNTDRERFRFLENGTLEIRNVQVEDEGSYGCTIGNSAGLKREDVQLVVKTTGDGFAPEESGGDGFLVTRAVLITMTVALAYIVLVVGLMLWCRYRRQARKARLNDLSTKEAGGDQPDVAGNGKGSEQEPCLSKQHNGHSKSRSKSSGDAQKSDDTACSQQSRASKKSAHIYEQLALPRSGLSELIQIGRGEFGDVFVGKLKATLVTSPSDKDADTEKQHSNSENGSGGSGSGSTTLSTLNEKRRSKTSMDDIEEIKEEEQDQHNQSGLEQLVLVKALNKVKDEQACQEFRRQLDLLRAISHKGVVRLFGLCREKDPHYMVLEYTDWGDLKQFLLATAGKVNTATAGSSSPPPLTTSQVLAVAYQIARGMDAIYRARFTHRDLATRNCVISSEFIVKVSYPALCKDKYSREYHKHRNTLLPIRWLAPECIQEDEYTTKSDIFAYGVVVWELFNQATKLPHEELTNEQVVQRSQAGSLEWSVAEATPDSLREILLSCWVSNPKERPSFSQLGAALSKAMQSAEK

[3] = molecular target: T3, OtkDeltaCy-Myc (Myc-tagged Otk lacking the cytoplasmic domain, aa 776–1033) (Drosophila melanogaster) (UniProt Q6AWJ9)
T3 sequence: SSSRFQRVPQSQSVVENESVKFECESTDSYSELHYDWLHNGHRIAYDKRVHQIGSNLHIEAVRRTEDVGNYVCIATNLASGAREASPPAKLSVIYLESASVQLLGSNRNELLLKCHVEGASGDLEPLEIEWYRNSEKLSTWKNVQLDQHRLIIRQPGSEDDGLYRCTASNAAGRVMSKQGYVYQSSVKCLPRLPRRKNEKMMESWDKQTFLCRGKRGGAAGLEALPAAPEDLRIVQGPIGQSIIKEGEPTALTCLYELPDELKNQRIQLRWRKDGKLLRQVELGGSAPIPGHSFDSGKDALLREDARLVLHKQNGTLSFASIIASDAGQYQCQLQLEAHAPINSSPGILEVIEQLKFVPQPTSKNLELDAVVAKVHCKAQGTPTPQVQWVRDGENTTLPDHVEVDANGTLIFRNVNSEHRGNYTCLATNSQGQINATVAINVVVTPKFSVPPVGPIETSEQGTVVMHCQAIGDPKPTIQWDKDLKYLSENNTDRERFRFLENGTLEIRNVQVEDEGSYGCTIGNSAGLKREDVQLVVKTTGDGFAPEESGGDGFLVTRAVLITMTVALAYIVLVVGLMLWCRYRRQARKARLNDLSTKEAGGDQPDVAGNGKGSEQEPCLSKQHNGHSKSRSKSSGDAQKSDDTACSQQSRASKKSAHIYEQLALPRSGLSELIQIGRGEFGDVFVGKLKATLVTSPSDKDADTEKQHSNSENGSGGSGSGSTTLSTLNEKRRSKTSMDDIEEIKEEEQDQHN

[4] = molecular target: Otk2-GFP (GFP-tagged Off-track2) (Drosophila melanogaster)
[5] = molecular target: Otk2-Myc (Myc-tagged Off-track2) (Drosophila melanogaster)

Otk2-GFP (GFP-tagged Off-track2) (Drosophila melanogaster) (receptor)
binding [1]: binds | binding [2]: binds | binding [3]: binds

B1: Fz2-Myc (Myc-tagged Frizzled2) (receptor, UniProt Q9VVX3 23-694)
chain: DGPLHSADHGMGGMGMGGHGLDASPAPGYGVPVIPKDPNLRCEEITIPMCRGIGYNMTSFPNEMNHETQDEAGLEVHQFWPLVEIKCSPDLKFFLCSMYTPICLEDYHKPLPVCRSVCERARSGCAPIMQQYSFEWPERMACEHLPLHGDPDNLCMEQPSYTEAGSGGSSGGSGGSGSGSGSGGKRKQGGSGSGGSGAGGSSGSTSTKPCRGRNSKNCQNPQGEKASGKECSCSCRSPLIFLGKEQLLQQQSQMPMMHHPHHWYMNLTVQRIAGVPNCGIPCKGPFFSNDEKDFAGLWIALWSGLCFCSTLMTLTTFIIDTERFKYPERPIVFLSACYFMVAVGYLSRNFLQNEEIACDGLLLRESSTGPHSCTLVFLLTYFFGMASSIWWVILSFTWFLAAGLKWGNEAITKHSQYFHLAAWLIPTVQSVAVLLLSAVDGDPILGICYVGNLNPDHLKTFVLAPLFVYLVIGTTFLMAGFVSLFRIRSVIKQQGGVGAGVKADKLEKLMIRIGIFSVLYTVPATIVIGCYLYEAAYFEDWIKALACPCAQVKGPGKKPLYSVLMLKYFMALAVGITSGVWIWSGKTLESWRRFWRRLLGAPDRTGANQALIKQRPPIPHPYAGSGMGMPVGSAAGSLLATPYTQAGGASVASTSHHHLHHHVLKQPAASHV
binding [4]: binds

B2: Wnt2-Myc (Myc-tagged Drosophila Wnt2) (ligand, UniProt P28465 24-352)
chain: FTSVMLCGRIPGLTPGQRNMCREMPDALIALGEGHQLGAQECQHQFRGHRWNCSEVWQRNVFAHVIPTASREAAYTYAIASAGAAYAVTAACARGNISTCGCDVRHKATPTGGGTPDEPWKWGGCSADVDFGMRYARRFMDARELERDSRTLMNLHNNRAGRTLVKKMLRTDCKCHGVSGSCVMKTCWKSLPPFRLVGDRLMLKYQKAKTVQAVKGKRGLRLVLSRKKHAGTARAQKPVLDWPKRMELIYLEASPNYCERSLQTGSQGTSGRTCQRTGHGPQSCDLLCCGRGHNTQHIRRTTQCRCQFRWCCEVKCDECDESYEEFTCK
binding [4]: binds

B3: Otk-GFP (GFP-tagged Off-track) (receptor, UniProt Q6AWJ9 23-1033)
chain: T1 sequence
binding [5]: binds
